Here are results for 26 compounds from PubChem BioAssay AID330 (DTP/NCI, 2004).

The structures appear in SMILES notation. The list shows only some results of the screen, not a fair sample: it gathers tests that were run many times, whatever their T/C, doses with no T/C, and many T/C values between a quarter and a half above the control. Other doses and runs of a compound stand elsewhere. T/C is the treated group as % of the vehicle group. Some entries give survivors of the animals treated and no T/C: the source files T/C as zero there, which appears to mark a toxic dose or a test without result, not a measured value. Some doses without a T/C left all or most animals alive at the check, yet need not have been tolerated: the source hardly ever lists a survival T/C far under the control, and the zero likely stands for such cases as well. Counts of survivors are from the toxicity check (mostly the fifth day) where no day follows; animals may have died later. Schedules are NCI's codes, taken here to give the interval after Q, in days (D) or hours (H), and the number of doses after X. Some structures stand for samples that the source files as different forms (salt, stereo form or complex); doses refer to the form tested. Some doses were run more than once; their values stand side by side, smallest first. For survival time, this PubChem deposit counts one and a half times the control or more as active, and values a quarter to a half above the control carry no call in these data; other NCI protocols may use other cut-offs. Signs of the kind (2×) count equal records among those shown.

This test relates to P388 leukemia ip, CD2F1 mice, survival T/C. The experiment in a line: NCI In Vivo Anticancer Drug Screen. Data for tumor model P388 Leukemia (intraperitoneal) in CD2F1 (CDF1) mice. The following applies: T/C endpoint: median survival time, higher T/C = longer survival.
Where [1] appears, read: dose: 100.0 mg/kg/injection, schedule: Q01DX005 (ip), vehicle: Klucel (hydroxypropylcellulose) (HPC).
Setting [2] is: dose: 200.0 mg/kg/injection, schedule: Q01DX005 (ip), vehicle: Klucel (hydroxypropylcellulose) (HPC).
[3] abbreviates: dose: 400.0 mg/kg/injection, schedule: Q04DX003 (ip), vehicle: saline with Tween-80.
[4] abbreviates: dose: 200.0 mg/kg/injection, schedule: Q01DX009 (ip), vehicle: saline with Tween-80.
Where [5] appears, read: dose: 200.0 mg/kg/injection, schedule: Q01DX005 (ip), vehicle: saline with Tween-80.
Where [6] appears, read: dose: 60.0 mg/kg/injection, schedule: Q01DX005 (ip), vehicle: saline with Tween-80.
Where [7] appears, read: dose: 120.0 mg/kg/injection, schedule: Q01DX005 (ip), vehicle: saline with Tween-80.
[8] abbreviates: dose: 240.0 mg/kg/injection, schedule: Q01DX005 (ip), vehicle: saline with Tween-80.
The mark [9] stands for this setting: dose: 50.0 mg/kg/injection, schedule: Q01DX009 (ip), vehicle: water.
Where [10] appears, read: dose: 100.0 mg/kg/injection, schedule: Q01DX009 (ip), vehicle: water.
Setting [11] is: dose: 200.0 mg/kg/injection, schedule: Q01DX009 (ip), vehicle: water.
Where [12] appears, read: dose: 400.0 mg/kg/injection, schedule: Q01DX009 (ip), vehicle: saline with Tween-80.

As for `Cc1cc2c(-c3ccccc3)c3cc(C)c(N)cc3nc2cc1N`, the survivor count (dose: 50.0 mg/kg/injection, schedule: Q01DX005 (ip), vehicle: Klucel (hydroxypropylcellulose) (HPC)) was 2 of 6; the survivor count under setting [1] is 0 of 6; the survivor count under setting [2] is on record as 0 of 6.
As for `CCc1c(CC(=O)O)c2cc(C)ccc2n1Cc1ccc(Cl)cc1`, the survivor count is 5 of 6 (dose: 100.0 mg/kg/injection, schedule: Q04DX003 (ip), vehicle: saline with Tween-80); 3 of 6 (dose: 200.0 mg/kg/injection, schedule: Q04DX003 (ip), vehicle: saline with Tween-80); 0 of 6 (dose: 200.0 mg/kg/injection, schedule: Q04DX003 (ip), vehicle: saline); 0 of 6 and 4 of 6 under setting [3]; 1 of 6 (dose: 400.0 mg/kg/injection, schedule: Q04DX003 (ip), vehicle: saline).
In the case of `N#CC1(C#N)C2C=CC(C3CCC=C32)C1(C#N)C#N` (stereo not drawn), where the note is “dose: 50.0 mg/kg/injection, schedule: Q01DX009 (ip), vehicle: Klucel (hydroxypropylcellulose) (HPC)”, the survivor count is recorded as 1 of 6.
In the case of `CCCCOC(=O)/C=C(\Cl)C(=O)OCCCC`, the T/C (dose: 50.0 mg/kg/injection, schedule: Q01DX009 (ip), vehicle: saline with Tween-80) is 116, 118 (2×), 120 % of control. Besides, the survivor count is given as 3 of 6 (dose: 100.0 mg/kg/injection, schedule: Q01DX009 (ip), vehicle: saline with Tween-80) and 0 of 6 under setting [4].
As for `COc1cc(N=Nc2ccccc2)cc(/C=N\NC(=S)Nc2cccc(C)c2)c1O`, the survivor count is 3 of 6 (dose: 100.0 mg/kg/injection, schedule: Q01DX005 (ip), vehicle: saline with Tween-80) and 0 of 6 under setting [5].
For `O=C([O-])C(=O)[N-]CCC[N-]C(=O)C(=O)[N-]CCC[N-]C(=O)C(=O)[O-].[Cu+2].[Cu+2].[Na+]`, the survivor count runs as follows: under setting [6], 0 of 6; under setting [7], 0 of 6; under setting [8], 0 of 6.
Turning to `O=C1[O][Sn]2([Cl])[NH]C1C[S]2` (stereo not drawn), under setting [2], the survivor count is 0 of 6.
Turning to `CN(C)C1=NC(NC(C)(C)C)(N(C)C)OC(N(C)C)=N1` (stereo not drawn), the survivor count (dose: 200.0 mg/kg/injection, schedule: Q01DX005 (ip), vehicle: saline) was 0 of 6.
For `Cc1cc(-c2ccc(N=Nc3ccc4c(S(=O)(=O)O)cc(S(=O)(=O)O)c(N)c4c3O)c(C)c2)ccc1N=Nc1ccc2c(S(=O)(=O)O)cc(S(=O)(=O)O)c(N)c2c1O`, the survivor count (dose: 50.0 mg/kg/injection, schedule: Q01DX009 (ip), vehicle: saline) is listed as 6 of 6.
Regarding `COC(C(=O)O)(c1ccccc1)C(F)(F)F` (stereo not drawn), the survivor count (dose: 240.0 mg/kg/injection, schedule: Q01DX005 (ip), vehicle: saline) was 3 of 6.
On to `COc1ccc(-n2c(SCC(=O)NC(=O)Nc3ccccc3)nc3c(Br)cc(Br)cc3c2=O)cc1`, for which the survivor count runs as follows: (dose: 60.0 mg/kg/injection, schedule: Q01DX005 (ip), vehicle: Klucel (hydroxypropylcellulose) (HPC)) 6 of 6; (dose: 120.0 mg/kg/injection, schedule: Q01DX005 (ip), vehicle: Klucel (hydroxypropylcellulose) (HPC)) 6 of 6.
For `COc1ccc(CC2C(=O)NC(C)C(=O)N(C)C3C(=O)N(C)C(Cc4ccc(O)c(c4)Oc4ccc(cc4)C3O)C(=O)NC(C)C(=O)NC(C)C(=O)N2C)cc1` (stereo not drawn) (tested in a mixture with another compound), the T/C was 145 % of control (dose: 0.12 mg/kg/injection, schedule: Q01DX009 (ip), vehicle: Klucel (hydroxypropylcellulose) (HPC)); 139 % of control (dose: 0.25 mg/kg/injection, schedule: Q01DX009 (ip), vehicle: Klucel (hydroxypropylcellulose) (HPC)); 149 % of control (dose: 0.5 mg/kg/injection, schedule: Q01DX009 (ip), vehicle: Klucel (hydroxypropylcellulose) (HPC)); 132 % of control (dose: 125.0 micrograms/kg/injection, schedule: Q01DX009 (ip), vehicle: saline); 144 % of control (dose: 2000.0 micrograms/kg/injection, schedule: Q01DX009 (ip), vehicle: saline). In addition, under “dose: 4000.0 micrograms/kg/injection, schedule: Q01DX009 (ip), vehicle: saline”, the survivor count is recorded as 6 of 10.
With `NNc1nnnc2c1sc1ccccc12`, the survivor count (dose: 200.0 mg/kg/injection, schedule: Q01DX001 (ip), vehicle: saline with Tween-80) is 6 of 6.
`O=C(O)/C=N/NS(=O)(=O)c1cccc(S(=O)(=O)N/N=C/C(=O)O)c1`: the T/C is 127 % of control (dose: 12.5 mg/kg/injection, schedule: Q01DX009 (ip), vehicle: other); 133 % of control (dose: 25.0 mg/kg/injection, schedule: Q01DX009 (ip), vehicle: other); 130 % of control (dose: 25.0 mg/kg/injection, schedule: Q01DX009 (ip), vehicle: water); 143 % of control (dose: 50.0 mg/kg/injection, schedule: Q01DX009 (ip), vehicle: other); 128 % of control under setting [9]. Moreover, the survivor count (dose: 100.0 mg/kg/injection, schedule: Q01DX009 (ip), vehicle: other) is 6 of 6; the survivor count under setting [10] is 5 of 6; the survivor count (dose: 200.0 mg/kg/injection, schedule: Q01DX009 (ip), vehicle: other) is listed as 5 of 6; the survivor count under setting [11] is 3 of 6; the survivor count (dose: 400.0 mg/kg/injection, schedule: Q01DX009 (ip), vehicle: water) is 0 of 6.
For the compound `CCCCOC(=O)c1ccccc1C(=O)O.CCCCOC(=O)c1ccccc1C(=O)O.[Cu+2]`, the survivor count (dose: 50.0 mg/kg/injection, schedule: Q04DX003 (ip), vehicle: saline with Tween-80) is on record as 1 of 6.
In the case of `O=NNc1nc2ccc([N+](=O)[O-])cc2s1`, the T/C under setting [9] was 129 % of control. Also, the survivor count is, setting by setting: under setting [10], 0 of 6 and 2 of 6; under setting [11], 0 of 6.
In the case of `Nc1nc(SN=Nc2ccc(S(N)(=O)=O)cc2)c2[nH]cnc2n1`, where the note is “dose: 30.0 mg/kg/injection, schedule: Q01DX009 (ip), vehicle: saline”, the survivor count is on record as 6 of 6.
On to `CN(C)C(C(N(C)C)=[N+](C)C)=[N+](C)C`, for which the survivor count (dose: 25.0 mg/kg/injection, schedule: Q01DX009 (ip), vehicle: saline) is on record as 3 of 6.
For the compound `S=c1nc[nH]c2c1ncn2C1CCCCO1` (stereo not drawn), the survivor count runs as follows: under setting [12], 6 of 6; (dose: 500.0 mg/kg/injection, schedule: Q01DX009 (ip), vehicle: Klucel (hydroxypropylcellulose) (HPC)) 4 of 6.
Regarding `COC1C(CO)OC(n2cnc3c(=S)nc(N)[nH]c32)C1O` (stereo not drawn), the T/C by setting is: under setting [4], 136 % of control; under setting [12], 131 % of control; under setting [3], 131 % of control; (dose: 600.0 mg/kg/injection, schedule: Q04DX003 (ip), vehicle: saline with Tween-80) 131 % of control.
As to `CCOc1c(Cc2ccccc2)c(=O)n2c3ccccc3n(CC)c2c1C#N`, the survivor count under setting [6] is reported as 6 of 6, the survivor count under setting [7] is on record as 6 of 6 and the survivor count under setting [8] is recorded as 6 of 6.
On to `COc1ccc(/C=C/c2ccc3ccccc3[n+]2C)cc1Br`, for which the survivor count is, setting by setting: under setting [1], 0 of 6; under setting [2], 0 of 6.
`Cn1/c2cc/c1=C(\c1ccc(S(=O)(=O)O)cc1)c1ccc([n-]1)/C(c1ccc(S(=O)(=O)O)cc1)=c1/cc/c([nH]1)=C(\c1ccc(S(=O)(=O)O)cc1)c1ccc([n-]1)/C=2c1ccc(S(=O)(=O)O)cc1.O.O=S(=O)(O)C(F)(F)F.[Cu+2]`: where the note is “dose: 200.0 mg/kg/injection, schedule: Q01DX009 (ip), vehicle: saline”, the survivor count is 1 of 6.
In the case of `CCCC(=O)C#C[Si](C)(C)C`, under setting [5], the survivor count was 1 of 6.
With `COCC(=O)Oc1ccc[nH]c1=O`, the survivor count (dose: 400.0 mg/kg/injection, schedule: Q01DX009 (ip), vehicle: saline) is 0 of 6 and 2 of 6.
In the case of `Cc1cc(C)nc(NS(=O)(=O)c2ccc(Nc3c4ccccc4nc4c([N+](=O)[O-])cccc34)cc2)n1`, the survivor count by setting is: under setting [6], 6 of 6; under setting [7], 6 of 6; under setting [8], 6 of 6.
